# Assay results from PubChem BioAssay AID2685 (National Center for Advancing Translational Sciences (NCATS), 2010).
# About 2,100 (0.66%) of roughly 320,000 compounds were called active. Inconclusive results, whose numbers are uncertain, are shown with a selection of clear calls. Calls follow the shape of the dose curve; as a rule, active = well fitted inhibition curve with a large enough effect in the signal ratio, with a control signal flat (not every such curve was filed as active); inconclusive = small, poorly fitted or top-dose-only effect, or effect the other way, or a change in a side signal; inactive = flat fitted curve, though single readings scatter; the % refers to the signal ratio. A potency beside an inconclusive call is a rough fit, not a confirmed value.
# Test: qHTS Assay for Lipid Storage Modulators in Drosophila S3 Cells
# Conditions: BODIPY lipid droplet fluorescence, 18-24 h, cells fed with added oleic acid; lipid storage change, negative = inhibition: at 46.1 µM (top of the series) unless noted
# How it was run: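 Laser-scanning cytometry quantifies lipid droplet accumulation (500–530 nm total intensity; droplet/cell object ratio) in oleic acid-fed (400 uM added) Drosophila S3 cells treated with a concentration series. 20 uM Triacsin C defined 100% inhibition.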
# % is scaled to controls: 0 for no effect and ±100 for the full control effect; potency is read from the fitted curve at half-maximal effect.
SMILES,"lipid storage change, negative = inhibition",Potency
CN(C)c1ccc(/C=N/Nc2nc3ccccc3o2)cc1,inconclusive: -60.1%,
CC(=O)c1nccs1,inconclusive: 26.8%,
CCOC(=O)C1=C(C)N(CC(C)C)C(=O)C1,inconclusive: 0.757%,
CC(=O)NCC(=O)OCC(=O)N1c2ccccc2Sc2ccccc21,inconclusive: -41.8%,
CCN(CC)S(=O)(=O)c1ccc(N2CCCCC2)c(C(=O)Nc2ccccc2N2CCOCC2)c1,,"inconclusive: 18.4 µM [falling, single point]"
CC(C)C[C@@H](NC(=O)C1CCC(CNC(=O)[C@@H]2CCCN2C(=O)OC(C)(C)C)CC1)C(=O)O (stereo partly specified),inconclusive: 21.7%,
CCOC(=O)c1cc(NC(=O)c2ccc(Cl)cc2)c(=O)oc1-c1ccccc1,inconclusive: -7.76%,
Cc1ccc(N(NC(=O)C(O)(c2ccccc2)c2ccccc2)C(=O)CCl)cc1,,"inconclusive: 18.4 µM [falling, single point]"
Cc1ccccc1N1CCN(CCC(=O)Nc2ccc(F)cc2)CC1,inconclusive: 30%,
Cc1cc(NS(=O)(=O)c2ccc(Nc3nc(-c4sc(C)nc4C)cs3)cc2)no1,,"inconclusive: 14.6 µM [rising, single point]"
Cc1cccc(C)c1OCCCCN1CCNCC1,,"inconclusive: 18.4 µM [activator, single point]"
COc1ccc(C2CC(c3ccccc3)=NN2C(=O)COC(=O)c2nc3nccc(C)n3n2)cc1 (stereo unspecified),inconclusive: -30.4% [at 0.00295 µM],
COc1ccc2nc(C)cc(NCc3ccc(F)cc3)c2c1,inconclusive: -100%,
Cc1nn(-c2ccccc2)c2c1C1(C(=O)N(C)c3ccccc31)C(C#N)=C(N)O2 (stereo unspecified),,"inconclusive: 23.1 µM [falling, single point]"
O=C(NC1CC1)c1ccc(CSCc2ccccc2Cl)o1,,"inconclusive: 0.13 µM [falling, full curve, poor fit]"
O=C(Nc1cccc(Cl)c1)OCc1cn(-c2ccc(Cl)cc2)nn1,inconclusive: -10.1%,
CCOc1ccc(CCNC(=O)C2CC(=O)N(Cc3ccc(C)cc3)C2)cc1OCC (stereo unspecified),inconclusive,
COc1ccccc1C(=O)Nc1ccccc1N1CCN(C(=O)c2ccc(Cl)cc2)CC1,inconclusive: -22.5%,
COc1ccc(/C=C/C(=O)OC(C)CN2CCOCC2)cc1 (stereo unspecified),,"inconclusive: 29.1 µM [falling, single point]"
CC(O)c1nc2ccccc2n1CC(=O)N1CCN(c2ccccc2)CC1 (stereo unspecified),,"inconclusive: 0.092 µM [activator, full curve, poor fit]"
Nc1nnc(SCC(=O)NNC(=O)c2ccc(F)cc2)s1,inconclusive: 14.2%,
NC(=NCCc1c[nH]c2ccccc12)NC(=O)c1ccc(Cl)cc1,,"inconclusive: 29.1 µM [cytotoxic, single point]"
CCCCCC(=O)NCC(C)NC(=O)CCCCC (stereo unspecified),inconclusive: 4.24%,

# Taken from the results shown (2 entries):
SMILES,"lipid storage change, negative = inhibition",Potency
CCOC(=O)C1=C(C)N(CC(C)C)C(=O)C1,inconclusive: 0.757%,
CC(=O)NCC(=O)OCC(=O)N1c2ccccc2Sc2ccccc21,inconclusive: -41.8%,

# (list continues)

SMILES,"lipid storage change, negative = inhibition",Potency
CCCCCn1c(=O)[nH]c2cc(C(=O)N3CCN(c4ccc(C(C)=O)cc4)CC3)ccc2c1=O,,"inconclusive: 2.91 µM [activator, single point]"
NS(=O)(=O)c1ccc(-c2ccc(C=NC3CCS(=O)(=O)C3)o2)cc1 (stereo unspecified),inconclusive: 61.6%,
O=C(NC1CC1)C1CC(=O)N(c2cccc(Cl)c2Cl)C1 (stereo unspecified),,"inconclusive: 4.61 µM [falling, single point]"
COCCN1CCN(C(=O)c2ccc3nc(Cc4ccccc4F)oc3c2)CC1,inconclusive: 39.5%,
Cc1ccc(S(=O)(=O)N(CC(=O)Nc2ccc(Cl)c([N+](=O)[O-])c2)C2CCCCC2)cc1,,"inconclusive: 29.1 µM [falling, single point]"
Cc1nonc1C(=O)N1CCCC(N2CCN(c3ccc(F)cc3)CC2)C1 (stereo unspecified),,"inconclusive: 1.3 µM [activator, partial curve]"
Fc1ccc2c(c1)c1n[nH]c(=S)nc1n2CCc1ccccc1,,"inconclusive: 2.91 µM [falling, single point]"
Cc1ccc(-c2nc(CS(=O)(=O)CC(=O)NCc3cccc(F)c3)c(C)o2)cc1,inconclusive: -21.3%,
O=C(COC(=O)c1ccc2c(c1[N+](=O)[O-])C(=O)c1ccccc1C2=O)NC1CC1,,"inconclusive: 23.1 µM [falling, partial curve, poor fit]"
Cn1nnnc1SCc1nnc(-c2ccccc2Br)o1,inconclusive: -39.2%,
COc1ccccc1N(C)S(=O)(=O)c1ccc(C(=O)N(CC(N)=O)C(C)C)cc1,inconclusive: 3.99%,
CC(C)(C)NC(=O)Cn1cc(C#N)c2cc(Br)ccc21,inconclusive: 61.9%,
COc1ccc(-c2cc(CS(=O)(=O)c3ccccc3)on2)cc1,inconclusive: 6.38%,
COc1cccc(N2C(=O)CC(N3CCN(c4ccc([N+](=O)[O-])cc4)CC3)C2=O)c1 (stereo unspecified),,"inconclusive: 29.1 µM [activator, single point]"
Cc1ccc(/C=N/NC(=O)c2cccc(NC(=O)c3ccccc3C)c2)o1,inconclusive: -18.1%,
COC(=O)COc1cccc2c(=O)n(CC(=O)Nc3ccc4c(c3)OCCO4)ccc12,inconclusive: -15.9%,
O=C(NNC(=O)C1CCN(c2ncccn2)CC1)c1ccc(F)cc1,,"inconclusive: 29.1 µM [activator, single point]"
CC(=O)NCC(=O)N(Cc1ccco1)C1(C(=O)NC2CCCC2)CCCCC1,inactive: 1.93%,
O=C(CCN1C(=O)/C(=C/c2ccccc2Cl)SC1=S)NC1CCS(=O)(=O)C1 (stereo unspecified),,"inconclusive: 6.51 µM [falling, single point]"
CC(OC(=O)CCCN=C1NS(=O)(=O)c2ccccc21)C(=O)Nc1ccc(F)cc1Cl (stereo unspecified),inconclusive: -31.1%,
CCOC(=O)c1[nH]ncc1[C@@H]1C[C@H]2CN(Cc3cccc(Cl)c3)C(=O)[C@]23CCCN13,inconclusive: -11%,
Cc1nc(NC(=O)C23CC4CC(CC(C4)C2)C3)sc1Cc1ccc2c(c1)OCO2,,"inconclusive: 9.2 µM [falling, partial curve]"
COCCNC(=O)CSc1ccccc1C(=O)NC1CCCc2ccccc21 (stereo unspecified),inconclusive: 40.2%,
